Reference: US4603217A, “Ester substituted alkyl-2-(2,6-dichloroanilino)phenyl acetates” (priority 1983, dated 1986)
For at least one compound, name, drawing or mass did not settle the structure. Some compounds share one wording; it may come from a single statement.

Legend:
[1] = tested on: carrageenan edema; test: inhibition test of carrageenan edema employing a foot-pad edema method; assay type: in vivo, male Wister rats; conditions: relative to IM
Source text: Anti-inflammatory action was investigated according to the method of Winter et al [cf. Pro. Soc. Exp. Biol. Med., 111, 544 (1962)] by the inhibition test of carrageenan edema employing a foot-pad edema method using carrageenan as an irritating agent and male Wister rats weighing 130 to 170 g.

[2] = tested on: ultraviolet erythema; test: inhibition action for ultraviolet erythema; assay type: in vivo, male Hartley guinea pigs; conditions: relative to IM and DF
Experimental: With respect to Compounds 1 to 3, 15 and 21 which are especially useful as an anti-inflammatory drug, IM and DF, inhibition action for ultraviolet erythema was investigated according to the method of Adames et al [cf. Nature, London, 181, 773 (1958)] using guinea pigs as follows: Male Hartley guinea pigs weighing 250 to 350 g were shaved at their sides the day before and two hrs before the ultraviolet irradiation. To the guinea pigs were administered orally Compounds 1 to 3, 15 and 21, IM and DF in amounts as described in Table 2, respectively. To the control group was administered orally only Tween-80. At 1 hr after the time of administration, the guinea pigs were irradiated at their shaved sides by ultraviolet beam for 40 seconds.
The reaction of the ultraviolet erythema was evaluated at 2 hrs, 3 hrs and 5 hrs after irradiation according to the method of Winder et al [cf. Arch. Int. Pharmacodyn., 116, 261 (1958)]. […] Compounds 1 and 2 show a duration of the pharmacological effect over 5 hrs, contrary to that IM has a duration of 2 hrs.

| SMILES | anti-inflammatory activity compared with IM [1] | inhibition effect for ultraviolet erythema compared with IM and DF [2] |
| --- | --- | --- |
| C/C=C/C(=O)OC(C)OC(=O)Cc1c(C)n(C(=O)c2ccc(Cl)cc2)c2ccc(OC)cc12 (centres unmarked) [Compound 10, 1-(Crotonoyloxy)ethyl[1-(p-chlorobenzoyl)-5-methoxy-2-methyl-3-indolyl]acetate] | equal anti-inflammatory activity to IM | – |
| COc1ccc2c(c1)c(CC(=O)OC(C)OC(C)=O)c(C)n2C(=O)c1ccc(Cl)cc1 (centres unmarked) [Compound 8, 1-(Acetoxy)ethyl[1-(p-chlorobenzoyl)-5-methoxy-2-methyl-3-indolyl]acetate] | equal anti-inflammatory activity to IM | – |
| COc1ccc2c(c1)c(CC(=O)OCCOC(C)=O)c(C)n2C(=O)c1ccc(Cl)cc1 [Compound 3, 2-(Acetoxy)ethyl[1-(p-chlorobenzoyl)-5-methoxy-2-methyl-3-indolyl]acetate] | equal anti-inflammatory activity to IM | equal inhibition effect for ultraviolet erythema to that of IM and DF |
| CCC(=O)OC(C)OC(=O)Cc1c(C)n(C(=O)c2ccc(Cl)cc2)c2ccc(OC)cc12 (centres unmarked) [Compound 9, 1-(Propionyloxy)ethyl[1-(p-chlorobenzoyl)-5-methoxy-2-methyl-3-indolyl]acetate] | equal anti-inflammatory activity to IM | – |
